Experiment [1] concerns the target MBP-SHIP164_(1312-1464) (human) (UniProt A0JNW5). As to the kind of experiment: pull-down.
Experiment [2] has the same target. As to the kind of experiment: SEC. A general note: In gel filtration, larger molecules generally elute earlier.

Sequences of proteins named here, by UniProt entry; tags and fusion partners are left off. Residues count along the entry.
UniProt A0JNW5, 1312-1464: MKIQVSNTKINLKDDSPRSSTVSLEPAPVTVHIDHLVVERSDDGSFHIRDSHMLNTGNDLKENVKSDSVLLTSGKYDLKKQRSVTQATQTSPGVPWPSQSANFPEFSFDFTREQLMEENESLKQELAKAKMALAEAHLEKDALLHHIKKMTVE
UniProt P63167, whole entry: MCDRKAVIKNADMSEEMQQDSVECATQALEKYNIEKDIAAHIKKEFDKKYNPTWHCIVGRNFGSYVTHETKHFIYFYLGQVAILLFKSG

Results are given in words; binding and its absence hold for the method and conditions named. For some assays here: Binding seen in cells or lysates may run through a third protein. Some results given as binding are weak or reduced against the parent protein; the word gives no strength.

“untagged LC8 (DYNLL1) (from UniProt P63167 1-89)”: the binding entry in experiment [1] and in experiment [2] was “binds” each time.

The values are drawn from doi:10.1101/2021.11.04.467353.
